Measured values: paper PMC10372406
Results are given in words; binding and its absence hold for the method and conditions named. In cells and extracts the contact can be indirect. Binding calls can cover weak binding; strength is not graded here. Sequences can lack the tags named with a protein.

Target: FAM122A-HA (human)
Assay: co-IP; FAM122A with B55-FL or B56-FL subunits in transfected 293T lysates, done in both directions (Fig. S5B); the text gives one result for each pair

Binder	binding
PP2A regulatory subunit B55β, FLAG-tagged (B55-FL) (protein, UniProt Q00005 1-443) MEEDIDTRKINNSFLRDHSYATEADIISTVEFNHTGELLATGDKGGRVVIFQREQESKNQVHRRGEYNVYSTFQSHEPEFDYLKSLEIEEKINKIRWLPQQNAAYFLLSTNDKTVKLWKVSERDKRPEGYNLKDEEGRLRDPATITTLRVPVLRPMDLMVEATPRRVFANAHTYHINSISVNSDYETYMSADDLRINLWNFEITNQSFNIVDIKPANMEELTEVITAAEFHPHHCNTFVYSSSKGTIRLCDMRASALCDRHTKFFEEPEDPSNRSFFSEIISSISDVKFSHSGRYIMTRDYLTVKVWDLNMENRPIETYQVHDYLRSKLCSLYENDCIFDKFECVWNGSDSVIMTGSYNNFFRMFDRNTKRDVTLEASRENSKPRAILKPRKVCVGGKRRKDEISVDSLDFSKKILHTAWHPSENIIAVAATNNLYIFQDKVN	binds
PP2A regulatory subunit B55γ, FLAG-tagged (B55-FL) (protein, UniProt Q9Y2T4 1-447) MGEDTDTRKINHSFLRDHSYVTEADIISTVEFNHTGELLATGDKGGRVVIFQREPESKNAPHSQGEYDVYSTFQSHEPEFDYLKSLEIEEKINKIKWLPQQNAAHSLLSTNDKTIKLWKITERDKRPEGYNLKDEEGKLKDLSTVTSLQVPVLKPMDLMVEVSPRRIFANGHTYHINSISVNSDCETYMSADDLRINLWHLAITDRSFNIVDIKPANMEDLTEVITASEFHPHHCNLFVYSSSKGSLRLCDMRAAALCDKHSKLFEEPEDPSNRSFFSEIISSVSDVKFSHSGRYMLTRDYLTVKVWDLNMEARPIETYQVHDYLRSKLCSLYENDCIFDKFECAWNGSDSVIMTGAYNNFFRMFDRNTKRDVTLEASRESSKPRAVLKPRRVCVGGKRRRDDISVDSLDFTKKILHTAWHPAENIIAIAATNNLYIFQDKVNSDMH	binds
